Screen size: about 330,000 compounds; about 7,700 (2.3%) were called active. The shares of active, inactive and inconclusive entries below differ from those in the screen. The call rests on the fitted dose curve; in most records, active means well fitted inhibition curve with a large enough effect; inconclusive means small, poorly fitted or top-dose-only effect, or effect the other way; inactive means flat fitted curve, though single readings scatter. A potency beside an inconclusive call is a rough fit, not a confirmed value.
test: qHTS screen for small molecules that inhibit ELG1-dependent DNA repair in human embryonic kidney (HEK293T) cells expressing luciferase-tagged ELG1; settings: HEK293T ELG1-luciferase reporter, luminescence, 16 h, DNA damage induced by 5-fluorouridine; series mostly up to 46.1 µM; further: nearly all actives have a fitted effect of over 55% in size
Outline: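 HEK293T cells expressing luciferase-tagged ELG1 (2,000/well) received 5-Fluorouridine plus compound or DMSO for 16 hr at 37 °C. Luciferase was read by ONE-Glo luminescence after 30 min at room temperature.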
Potency means the concentration at half of the fitted maximal effect.

Row | SMILES | Potency
1 | CCOc1cc(CNCc2cccnc2)cc(Br)c1OCC(N)=O | inactive
2 | c1ccc(-c2cc(-c3ccccc3)[nH]n2)cc1 | inconclusive: 5.17 µM [activator, partial curve]
3 | O=C(Nc1ccccc1C(F)(F)F)C1CCCC1 | inactive
4 | COc1ccc(N(Cc2cc3ccc(C)cc3[nH]c2=O)C(=O)C2CCCO2)cc1 (stereo not drawn) | inactive
5 | Cc1ccc(NC(=S)N(Cc2cccc(Br)c2)CC2CCC(C(=O)O)CC2)cc1Cl (stereo not drawn) | inactive
6 | Cc1cccc(C)c1OCC(=O)N/N=C/c1ccc2c(c1)OCO2 | inactive
7 | Cc1ccc(S(=O)(=O)N(C)C)cc1NC(=O)c1cc(-c2ccncc2)nc2ccccc12 | inconclusive: 3.66 µM [inhibitor, partial curve]
8 | COC(=O)c1cccnc1NC(=S)NNC(=O)c1ccccc1 | inconclusive: 20.6 µM [activator, single point]
9 | COc1cc(OC)cc(C(=O)N[C@H](C(=O)OCC(=O)Nc2ccc(C(N)=O)cc2)C(C)C)c1 | inconclusive: 23.1 µM [inhibitor, partial curve, poor fit]
10 | CCOC(=O)c1c(NC(=O)CN2CCCCC2)sc2c1CCC(C=O)=C2Cl | inactive
11 | CC(C)OC(=O)c1sc2nc(-c3ccccc3)ccc2c1N | inconclusive: 0.366 µM [activator, full curve]
12 | Nc1cc([N+](=O)[O-])ccc1O | inactive
13 | CC1CCCCN1C(=O)/C=C/c1ccccc1[N+](=O)[O-] (stereo not drawn) | inactive
14 | Cc1nnc(NC(=O)c2cccc(NC(=O)C(C)C)c2)s1 | inconclusive: 20.6 µM [activator, partial curve]
15 | O=C(CNS(=O)(=O)c1c(Cl)cccc1Cl)N1CCCCCC1 | inactive
16 | CCCOc1ccc(NC(=O)CC2C(=O)N(C)C(=S)N2Cc2cccs2)cc1 (stereo not drawn) | inconclusive: 29.1 µM [inhibitor, single point]
17 | O=C(NNc1ccc([N+](=O)[O-])cc1[N+](=O)[O-])c1ccco1 | inconclusive: 11.6 µM [inhibitor, partial curve, poor fit]
18 | CCn1nnnc1NC(=O)c1cccc(OC)c1 | inconclusive: 20.6 µM [activator, partial curve]
19 | O=[N+]([O-])c1ccc(SCCc2ccccn2)cc1 | inconclusive: 16.4 µM [activator, partial curve, poor fit]
20 | Cc1ccc(CCNC(=O)Cn2cccc2)cc1 | inconclusive: 18.4 µM [activator, partial curve, poor fit]
21 | Cc1nc2cc(NC(=O)CS(=O)(=O)c3ccccc3)ccc2s1 | inconclusive: 29.1 µM [activator, single point]
22 | COc1ccc(C(=O)Cn2c(=N)n(C)c3ccccc32)cc1 | inconclusive: 3.66 µM [activator, full curve]
23 | Clc1ccc(CO/N=C2\CCCc3nonc32)c(Cl)c1 | inconclusive: 32.6 µM [activator, partial curve, poor fit]

Row | SMILES | Potency
24 | COc1ccccc1-c1cc(C(=O)N2CCCCC2)no1 | inconclusive: 2.59 µM [activator, full curve]
25 | CSCCC(NC(=O)c1cccc([N+](=O)[O-])c1)C(=O)O (stereo not drawn) | inconclusive: 10.3 µM [activator, partial curve, poor fit]
26 | Cc1noc(C)c1/C=N/Nc1ccc2ccccc2n1 | inconclusive: 3.66 µM [activator, full curve]
27 | CCOc1cc(/C=C(\C#N)C(=O)Nc2ccc(S(N)(=O)=O)cc2)ccc1OCCN1CCOCC1 | inactive
28 | CCOC(=O)c1sc(NC(=O)C2CC(=O)N(c3ccc(OC)cc3)C2)nc1C (stereo not drawn) | inconclusive: 11.6 µM [inhibitor, partial curve, poor fit]
29 | COC(=O)c1cc(C)sc1NC(=O)CN1CCN(C(=O)c2ccco2)CC1 | active: 20.6 µM
30 | O=S(=O)(NCc1ccccc1)c1ccc(-c2cnc(C3CC3)o2)cc1 | inconclusive: 20.6 µM [inhibitor, single point]
31 | CCN(CC)CCCNC(=O)CCC(=O)Nc1ccc2nc(N3CCC(C)CC3)cc(C)c2c1 | inconclusive: 29.1 µM [activator, single point]
32 | N#C/C(=C\c1cccc([N+](=O)[O-])c1)C(=O)NCC1CCCO1 (stereo not drawn) | inconclusive: 25.9 µM [activator, partial curve, poor fit]
33 | CCN(C[C@H]1N[C@@](CC)(C(=O)OC)[C@H]2C(=O)N(C)C(=O)[C@@H]12)C(=O)C1CCCCC1 | inactive
34 | Cc1cccc(-n2ccnc2SCC(=O)Nc2nccs2)c1 | inconclusive: 20.6 µM [activator, partial curve]
35 | Cc1ccc(C)c(-c2cc(C(=O)Nc3sc(C)c(C)c3C(N)=O)c3ccccc3n2)c1 | active: 18.4 µM
36 | COc1ccc(C2C(C(=O)N3CCN(c4ccc(OC)cc4)CC3)c3ccccc3C(=O)N2C)cc1 (stereo not drawn) | inconclusive: 16.4 µM [inhibitor, single point]
37 | COc1ccc(NC(=O)COc2ccc(/C=N/n3c(C)nnc3C)cc2OC)cc1 | inconclusive: 29.1 µM [activator, single point]
38 | CCOc1ccc(NC(=O)c2ccccc2OC)cc1 | inconclusive: 16.4 µM [activator, partial curve]
39 | CN1CCN(Cc2c(O)ccc3c(=O)c(Oc4ccccc4Cl)c(C(F)(F)F)oc23)CC1 | inactive
40 | Cc1cccc(/C(N)=N/OC(=O)c2cccnc2)c1 | inconclusive: 16.4 µM [activator, partial curve]
41 | Cc1c(NC(=O)COC(=O)C2(c3ccccc3F)CCCC2)c(=O)n(-c2ccccc2)n1C | inconclusive: 14.6 µM [inhibitor, partial curve, poor fit]
42 | Cc1onc(-c2ccccc2)c1C(=O)OCC(=O)Nc1ccc(C#N)cc1 | inconclusive: 11.6 µM [inhibitor, partial curve, poor fit]
43 | Cn1sc(NC(=O)c2ccc(Cl)cc2)nc1=O | inconclusive: 1.3 µM [activator, partial curve]
44 | COC(=O)CCCC(=O)N1CCCC(CCC(=O)NCc2ccc(F)c(F)c2)C1 (stereo not drawn) | inactive
45 | CCC(=O)Nc1nc2cc(OC)ccc2s1 | inconclusive: 9.2 µM [activator, partial curve]
46 | COc1ccc(NC(=O)CN(C)S(=O)(=O)c2cnc[nH]2)cc1Cl | inactive

Random excerpt: 3 records from the list.
Row | SMILES | Potency
30 | O=S(=O)(NCc1ccccc1)c1ccc(-c2cnc(C3CC3)o2)cc1 | inconclusive: 20.6 µM [inhibitor, single point]
27 | CCOc1cc(/C=C(\C#N)C(=O)Nc2ccc(S(N)(=O)=O)cc2)ccc1OCCN1CCOCC1 | inactive
37 | COc1ccc(NC(=O)COc2ccc(/C=N/n3c(C)nnc3C)cc2OC)cc1 | inconclusive: 29.1 µM [activator, single point]

Later entries:

Row | SMILES | Potency
47 | CCc1ccc(-c2nc(CS(=O)CC(=O)NCc3ccccc3)c(C)o2)cc1 (stereo not drawn) | inactive
48 | CSCCC1NC(=O)N(CC(=O)Nc2ccc3c(c2)OCCO3)C1=O (stereo not drawn) | inconclusive: 29.1 µM [activator, single point]
49 | Cc1ccc(-c2[nH]c(-c3ccccc3)nc2SCC(=O)NCC2CCCO2)cc1 (stereo not drawn) | inconclusive: 20.6 µM [inhibitor, single point]
50 | O=c1c2sc3nc(N4CCOCC4)c4c(c3c2nnn1Cc1ccccc1)CCCC4 | inactive
51 | CC(C)(C)n1ncc2c(=O)n(CC(=O)NC3CCCCC3)cnc21 | inconclusive: 20.6 µM [activator, partial curve]
52 | COc1ccc(-n2nccc2-c2nn(-c3cccc(OC)c3)c(=O)n(C)c2=O)cc1 | inconclusive: 23.1 µM [inhibitor, partial curve]
53 | CCCCCCc1nc(C(N)=O)c2[nH]c(=O)n(-c3ccccc3F)c2n1 | inconclusive: 32.6 µM [inhibitor, single point]
54 | CCOc1ccc(C(=O)Nc2ccc3c(c2)OCCO3)cc1OC | inconclusive: 4.61 µM [activator, partial curve]
55 | C=Cn1cc[n+](CC(=O)c2cc(C(C)(C)C)c(O)c(C(C)(C)C)c2)c1 | inconclusive: 1.64 µM [inhibitor, partial curve, poor fit]
56 | CC1CC(C)CN(S(=O)(=O)c2ccc(NC(=O)[C@@H]3CCCN3C(=O)c3cccs3)cc2)C1 (stereo partly drawn) | inactive
57 | CC(C)c1ccc(/C=N/NC(=O)c2nnn(-c3nonc3N)c2CN(C)C2CCCCC2)cc1 | inconclusive: 32.6 µM [activator, partial curve, poor fit]
58 | CCN1C(=NCCc2cccs2)N[C@@H](c2cccs2)C(C(=O)OC)=C1C | inactive
59 | O=C(COc1ccc(Cl)cc1)NCc1nnc(SCC(=O)N2CCCC2)o1 | inactive
60 | CN(C)S(=O)(=O)c1ccc(S(=O)(=O)N2CCCC(C(=O)NC3CC3)C2)cc1 (stereo not drawn) | inconclusive: 18.3 µM [inhibitor, partial curve]
61 | Cc1cccc(Nc2nc(-c3ccc(F)cc3)cs2)n1 | inconclusive: 1.26 µM [activator, partial curve, poor fit]
62 | CCOc1ccc(C2=Nc3ccccc3C(c3ccc(N4CCOCC4)cc3)=NN2)cc1 | inconclusive: 3.26 µM [activator, partial curve]
63 | O=C(/C=C/c1ccc([N+](=O)[O-])cc1)Nc1cccc(S(=O)(=O)NC2=NCCCCC2)c1 | active: 14.6 µM
64 | Cc1c2cnn(-c3ccccc3)c(=O)c2c(C)n1CCCC(=O)N1CCN(c2ncccn2)CC1 | inconclusive: 23.1 µM [inhibitor, single point]
65 | CN1C(=O)CC(c2ccco2)Sc2ccccc21 (stereo not drawn) | inconclusive: 18.4 µM [activator, single point]
66 | Cc1ccc(CS(=O)(=O)c2ncc(Cl)c(C(=O)Nc3nnc(C)s3)n2)cc1 | inconclusive: 25.9 µM [inhibitor, partial curve, poor fit]
67 | CCOC(=O)C1(C)NC(c2ccccc2F)C2C(=O)N(c3cccc(C(C)=O)c3)C(=O)C21 (stereo not drawn) | inactive
68 | COC(=O)c1ccc(CSC2=NC[C@@H]3[C@@H]4C(=O)N(C)C(=O)[C@@H]4[C@](Cc4ccccc4)(C(=O)OC)N23)cc1 | inactive
